Source: patent US20220017501A1, “MICROBIOCIDAL THIAZOLE DERIVATIVES” (SYNGENTA PARTICIPATIONS AG, priority 2018, published 2022)
Some entries share one result that the patent states for a list of compounds.

Key:
[1] = test system: Sclerotinia sclerotiorum; experiment: Sclerotinia sclerotiorum / liquid culture (cottony rot); type: cell-based; details: 20 ppm, growth inhibition photometrically 3-4 days after application
[2] = test system: Puccinia recondita f. sp. tritici; experiment: Puccinia recondita f. sp. tritici / wheat / leaf disc curative (brown rust); type: in vivo; details: 200 ppm; wheat leaf segments, curative (applied 1 day after inoculation); compared to untreated control
[3] = test system: Botryotinia fuckeliana (Botrytis cinerea); experiment: Botryotinia fuckeliana (Botrytis cinerea) / liquid culture (gray mould); type: cell-based; details: 20 ppm, growth inhibition photometrically 3-4 days after application
[4] = test system: Phakopsora pachyrhizi; experiment: Phakopsora pachyrhizi / soybean / preventative (soybean rust); type: in vivo; details: 200 ppm, soybean leaf disks, compared to untreated control
[5] = test system: Phaeosphaeria nodorum (Septoria nodorum); experiment: Phaeosphaeria nodorum (Septoria nodorum) / wheat / leaf disc preventative (glume blotch); type: in vivo; details: 200 ppm, wheat leaf segments, compared to untreated control
[6] = test system: Alternaria solani; experiment: Alternaria solani / tomato / leaf disc (early blight); type: in vivo; details: 200 ppm; tomato leaf disks, inoculated 2 days after application; compared to untreated control

Compound | control of Sclerotinia sclerotiorum [1] | control of Puccinia recondite f. sp. tritici [2] | control of Botryotinia fuckeliana [3] | control of Phakopsora pachyrhizi [4] | control of Phaeosphaeria nodorum [5] | control of Alternaria solani [6]
CCCCCCNC(=O)c1nc(N(C#N)c2cc(F)nc(F)c2)sc1C [I.h.23, 2-[cyano-(2,6-difluoro-4-pyridyl)amino]-N-hexyl-5-methyl-thiazole-4-carboxamide] | at least 80% | at least 80% | at least 80% | at least 80% | – | –
Cc1sc(N(C#N)c2cc(F)nc(F)c2)nc1C(=O)NC1(C)CCCC1 [I.g.23, 2-[cyano-(2,6-difluoro-4-pyridyl)amino]-5-methyl-N-(1-methylcyclopentyl)thiazole-4-carboxamide] | at least 80% | – | – | at least 80% | at least 80% | at least 80%
CCCCNC(=O)c1nc(N(C#N)c2cc(F)nc(F)c2)sc1C [I.p.23, N-butyl-2-[cyano-(2,6-difluoro-4-pyridyl)amino]-5-methyl-thiazole-4-carboxamide] | – | at least 80% | – | at least 80% | – | –
Cc1sc(N(C#N)c2cc(F)nc(F)c2)nc1C(=O)NCc1ccccc1 [I.o.23, N-benzyl-2-[cyano-(2,6-difluoro-4-pyridyl)amino]-5-methyl-thiazole-4-carboxamide] | – | – | at least 80% | – | – | –
CCCCCNC(=O)c1nc(N(C#N)c2cc(F)nc(F)c2)sc1C [I.l.23, 2-[cyano-(2,6-difluoro-4-pyridyl)amino]-5-methyl-N-pentyl-thiazole-4-carboxamide] | – | at least 80% | – | at least 80% | – | –
Cc1sc(N(C#N)c2cc(F)nc(F)c2)nc1C(=O)NCC1(CC2CC2)CC1 [I.f.23, 2-[cyano-(2,6-difluoro-4-pyridyl)amino]-N-[[1-(cyclopropylmethyl)cyclopropyl]methyl]-5-methyl-thiazole-4-carboxamide] | at least 80% | – | – | at least 80% | at least 80% | –
Cc1sc(N(C#N)c2cncc(F)c2)nc1C(=O)NC1CCC1(C)C (centres unmarked) [I.b.18, 2-[cyano-(5-fluoro-3-pyridyl)amino]-N-(2,2-dimethylcyclobutyl)-5-methyl-thiazole-4-carboxamide] | at least 80% | – | – | – | – | –
Cc1sc(N(C#N)c2cc(F)nc(F)c2)nc1C(=O)NC1CCC1 [I.a.23, 2-[cyano-(2,6-difluoro-4-pyridyl)amino]-N-cyclobutyl-5-methyl-thiazole-4-carboxamide] | – | – | – | – | at least 80% | at least 80%
Cc1sc(N(C#N)c2cc(F)nc(F)c2)nc1C(=O)NCC(C)C [I.i.23, 2-[cyano-(2,6-difluoro-4-pyridyl)amino]-N-isobutyl-5-methyl-thiazole-4-carboxamide] | at least 80% | at least 80% | – | at least 80% | – | at least 80%
Cc1sc(N(C#N)c2cc(F)nc(F)c2)nc1C(=O)NC1CCC12CCCC2 (centres unmarked) [I.c.23, 2-[cyano-(2,6-difluoro-4-pyridyl)amino]-5-methyl-N-spiro[3.4]octan-3-yl-thiazole-4-carboxamide] | at least 80% | at least 80% | at least 80% | – | – | at least 80%
Cc1sc(N(C#N)c2cc(F)cc(F)c2)nc1C(=O)NC1CCC1(C)C (centres unmarked) [I.b.08, 2-(N-cyano-3,5-difluoro-anilino)-N-(2,2-dimethylcyclobutyl)-5-methyl-thiazole-4-carboxamide] | – | – | – | – | – | at least 80%
Cc1sc(N(C#N)c2cc(F)nc(F)c2)nc1C(=O)NCC(C)(C)C [I.k.23, 2-[cyano-(2,6-difluoro-4-pyridyl)amino]-N-(2,2-dimethylpropyl)-5-methyl-thiazole-4-carboxamide] | – | at least 80% | at least 80% | – | at least 80% | –
Cc1sc(N(C#N)c2cc(F)nc(F)c2)nc1C(=O)NC1CCC1(C)C (centres unmarked) [I.b.23, 2-[cyano-(2,6-difluoro-4-pyridyl)amino]-N-(2,2-dimethylcyclobutyl)-5-methyl-thiazole-4-carboxamide] | at least 80% | at least 80% | at least 80% | at least 80% | at least 80% | at least 80%
Cc1sc(N(C#N)c2cc(F)nc(F)c2)nc1C(=O)NC1CCC12Cc1ccccc1C2 (centres unmarked) [I.d.23, 2-[cyano-(2,6-difluoro-4-pyridyl)amino]-5-methyl-N-spiro[cyclobutane-2,2′-indane]-1-yl-thiazole-4-carboxamide] | – | – | – | – | at least 80% | –
